{
  "source": "PubChem BioAssay AID1487",
  "about": "(National Center for Advancing Translational Sciences (NCATS), 2009)",
  "assay": "qHTS Assay for Modulators of Lamin A Splicing",
  "conditions": "HeLa LMNA splicing GFP/RFP minigene ratio, 48 h",
  "method_in_brief": "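S3 HeLa cells stably expressing lamin A-EGFP splicing minigene plus DsRed2, 600 cells/well, 48 h compound exposure at 37C. Laser-scanning cytometry; analysed as GFP (500-530 nm)/RFP (575-640 nm) total intensity ratio; 0.5% DMSO vehicle.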",
  "key": {"[1]": {"conditions": "measured here: GFP splicing reporter channel"}, "[2]": {"conditions": "measured here: RFP viability control channel"}},
  "note": "Some of the results follow. These are further read-outs of the screen, such as a control signal, another cell line or another target. No call is given for them. Compounds called inactive in the main read-out are mostly missing here. The note in brackets gives the kind of curve behind each potency; many fits are weak.",
  "data": [
    {"compound": "COc1ccc(CCNC(=O)CCSc2nc(-c3ccco3)cc(C(F)(F)F)n2)cc1", "values": [
      {"measurement": "AC50", "setting": "[1]", "result": "35.5 µM [rising, single point]"}
    ]},
    {"compound": "CN1C(=S)N(c2cccnc2)C(=O)/C1=C\\c1ccc(N(C)C)cc1", "values": [
      {"measurement": "AC50", "setting": "[1]", "result": "20 µM [falling, partial curve, poor fit]"}
    ]},
    {"compound": "O=C(c1ccncc1)N1CCN(c2ccc3ccccc3n2)CC1", "values": [
      {"measurement": "AC50", "setting": "[1]", "result": "22.4 µM [falling, single point]"}
    ]},
    {"compound": "CC(=O)c1cccc(NC(=S)NC2CCCCC2)c1", "values": [
      {"measurement": "AC50", "setting": "[1]", "result": "6.31 µM [rising, partial curve, poor fit]"},
      {"measurement": "AC50", "setting": "[2]", "result": "15.8 µM [rising, partial curve, poor fit]"}
    ]},
    {"compound": "Cc1ccc(-c2cn(-c3ccccc3)c3[n+]2CCCS3)cc1", "values": [
      {"measurement": "AC50", "setting": "[1]", "result": "7.94 µM [rising, partial curve]"},
      {"measurement": "AC50", "setting": "[2]", "result": "7.08 µM [rising, full curve]"}
    ]},
    {"compound": "CCCCn1c(Oc2ccc(C(=O)OC)cc2)nc2c1c(=O)n(C)c(=O)n2C", "values": [
      {"measurement": "AC50", "setting": "[1]", "result": "12.6 µM [rising, single point]"}
    ]},
    {"compound": "Oc1ccccc1CN(Cc1ccco1)CC(O)COCc1ccc(Cl)cc1", "note": "(configuration not stated)", "values": [
      {"measurement": "AC50", "setting": "[1]", "result": "7.08 µM [rising, partial curve, poor fit]"},
      {"measurement": "AC50", "setting": "[2]", "result": "12.6 µM [rising, partial curve]"}
    ]},
    {"compound": "Cc1c(C(=O)NCc2cccnc2)oc2ccc(S(=O)(=O)N3CCCC(C)C3)cc12", "note": "(configuration not stated)", "values": [
      {"measurement": "AC50", "setting": "[1]", "result": "12.6 µM [rising, partial curve]"},
      {"measurement": "AC50", "setting": "[2]", "result": "14.1 µM [rising, partial curve]"}
    ]},
    {"compound": "O=C(OCC(=O)N1CCc2ccccc21)c1c2c(nc3ccccc13)CCCCC2", "values": [
      {"measurement": "AC50", "setting": "[1]", "result": "4.47 µM [rising, partial curve, poor fit]"},
      {"measurement": "AC50", "setting": "[2]", "result": "22.4 µM [rising, partial curve]"}
    ]},
    {"compound": "O=C(OC(C(=O)Nc1cccc(C(F)(F)F)c1)c1ccccc1)C1CCCCC1", "note": "(configuration not stated)", "values": [
      {"measurement": "AC50", "setting": "[1]", "result": "31.6 µM [rising, single point]"},
      {"measurement": "AC50", "setting": "[2]", "result": "14.1 µM [rising, partial curve, poor fit]"}
    ]},
    {"compound": "Fc1ccc(-c2nnc(SCc3ncc(-c4ccccc4)o3)n2CC2CCCO2)cc1", "note": "(configuration not stated)", "values": [
      {"measurement": "AC50", "setting": "[1]", "result": "35.5 µM [rising, single point]"}
    ]},
    {"compound": "Cc1cccc(/C=N/NC(=O)CNc2cccc3ccccc23)n1", "values": [
      {"measurement": "AC50", "setting": "[1]", "result": "10 µM [rising, partial curve]"},
      {"measurement": "AC50", "setting": "[2]", "result": "31.6 µM [rising, single point]"}
    ]},
    {"compound": "O=C(O)C1CC(=O)N(C2CCCCC2)C1c1ccccc1", "note": "(configuration not stated)", "values": [
      {"measurement": "AC50", "setting": "[2]", "result": "0.0447 µM [falling, full curve, poor fit]"}
    ]},
    {"compound": "CCn1c(SCc2nc3ccccc3[nH]2)nnc1-c1cccs1", "values": [
      {"measurement": "AC50", "setting": "[1]", "result": "6.31 µM [rising, full curve, poor fit]"},
      {"measurement": "AC50", "setting": "[2]", "result": "10 µM [rising, partial curve]"}
    ]}
  ]
}
